Data as given in PubChem BioAssay AID1508588 (Peter MacCallum Cancer Centre, 2020).
The deposit covers about 18,000 reagents; below is a part drawn at random. Of all reagents, 790 (4.4%) were called active. 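Calls rest on a combination of fold-change classes in drug and vehicle arms, not all shown here.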

Purpose: 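Which gene losses make BRAF-mutant melanoma cells more responsive to vemurafenib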 (primary screen)
Cell system: human WM266.4 melanoma cells (BRAF V600 mutant)
Reagents: siRNA pool against human genes, 40 nM
Timing: 96 h from transfection to read-out
Challenge: vemurafenib 300 nM (about IC25), added 48 h after transfection, for 48 h; comparison arm got DMSO vehicle only
Detection: 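Ratios to non-targeting siRNA for cell gain, counted as DAPI nuclei after minus before drug and averaged over two replicates, and for absorbance-read medium lactate per cell; both binned into fold-change classes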
Scale: cell gain with vemurafenib: higher = more cell gain than with non-targeting siRNA; lactate per cell with vemurafenib: higher = more lactate made per cell
Call rule: 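a knock-down counts as enhancing when its fold-change classes with vehicle and with vemurafenib, taken together, show a stronger drug effect on cell gain or lactate per cell; exact class pairs not stated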
Meaning of the calls: active = enhances vemurafenib effect; inactive = no enhancement seen

gene symbol,cell gain with vemurafenib,lactate per cell with vemurafenib,call
IGBP1,0.82,1.25,inactive
PCGF3,0.92,0.83,inactive
C3orf18,0.39,1.54,inactive
CASP3,0.86,1.19,inactive
ZFYVE21,0.6,0.51,inactive
LGR4,0.36,0.47,active
KDF1,0.29,1.38,inactive
CDC40,0.41,1.05,inactive
P3H4,0.52,1.04,inactive
HOPX,0.8,0.99,inactive
TEX30,0.7,1.04,inactive
CABP1,1.22,0.92,inactive
LMBRD1,0.19,1.36,inactive
IMP4,0.09,0.4,active
CYP4F2,1.01,0.7,inactive
ADAP2,0.21,0.84,inactive
DSP,0.81,0.5,inactive
UBE4A,-0.07,2.66,inactive
DNPEP,0.24,0.88,inactive
MEGF10,0.92,0.96,inactive
WAC,0.45,1.53,inactive
HOOK3,0.89,0.99,inactive
MRPL4,0.14,2.03,inactive
POMP,-0.12,1.96,inactive
RAP1GAP,0.45,2.03,inactive
ZNF618,0.7,1.36,inactive

Laid out differently: results already given.
| gene symbol | cell gain with vemurafenib | lactate per cell with vemurafenib | call |
| --- | --- | --- | --- |
| CDC40 | 0.41 | 1.05 | inactive |
| P3H4 | 0.52 | 1.04 | inactive |
| HOPX | 0.8 | 0.99 | inactive |
| TEX30 | 0.7 | 1.04 | inactive |

More reagents:
gene symbol,cell gain with vemurafenib,lactate per cell with vemurafenib,call
RIPPLY3,0.91,0.52,inactive
NCR3,0.14,0.8,inactive
THAP10,0.38,0.63,inactive
CLK4,0.9,0.34,inactive
MYCBPAP,0.13,1.27,inactive
CCDC61,0.97,1.19,inactive
MX1,0.36,1.13,inactive
PRAMEF2,1.21,0.6,inactive
MAJIN,0.92,0.55,inactive
GRM1,0.57,0.66,inactive
TNF,0.36,1.14,inactive
BIRC2,0.43,1.7,inactive
HIBADH,-0.06,0.74,inactive
GBX2,0.76,1.28,inactive
KRT37,0.54,1.21,inactive
KRTAP20-2,0.51,1.45,inactive
KIR2DS3,0.94,1.08,inactive
SULT6B1,0.64,0.3,inactive
TRA2B,-0.01,0.77,inactive
OR5C1,0.49,0.35,inactive
EEF1AKMT3,0.39,1.41,inactive
MRPL37,0.49,1.66,inactive
FILIP1,0.44,1.16,inactive
TFR2,0.71,0.47,inactive
SNX2,0.89,0.32,inactive
MUC1,1.18,0.9,inactive
SEC14L4,0.17,2.44,inactive
PABPC1L2B,0.39,1.4,inactive
TRIM4,0.78,0.94,inactive
OR52M1,0.48,1.34,inactive
DNAJB3P,0.51,0.76,inactive
